This continues a long series; more values of the same kind are listed elsewhere. Where a SMILES comes first, the peptide text is derived from it. Bridges are numbered along the chain shown (N, C = ends). [ ]: non-standard residue; d: D form. The star is where a group is joined. Heptanoyl(5-Me) = CCC(C)CCCC(=O)*; Dab = NCC[C@H](N)C(=O)O
What was measured:
Settings in all cases: growth mode: biofilm, 24 h; exposure time: 24 h
[1] = compound: T1, NC[C@H]1O[C@H](O[C@H]2[C@H](O)[C@@H](O[C@H]3O[C@H](CO)[C@@H](O)[C@H](N)[C@H]3O)[C@H](N)C[C@@H]2N)[C@H](N)C[C@@H]1O [tobramycin]; experiment: minimum concentration eradicating biofilm below detection limit (MCK-E); higher = more biofilm tolerance
Procedure: (§1)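 Clinical P. aeruginosa isolates were grown as static biofilms for 24 h at 37 °C in LB in half-area 96-well plates, then exposed for 24 h to tobramycin at 1, 4, 16, 64, 256 or […]. Surviving CFU were counted by spotting serial dilutions. MCK is the lowest tested concentration giving the stated log reduction in CFU versus an untreated control; '>1024' means the reduction was not reached at the top dose, and 1 is the lowest dose tested (≤1).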

[2] = compound: T2, CCC(C)CCCC(=O)N[C@@H](CCN)C(=O)N[C@H](C(=O)N[C@@H](CCN)C(=O)N[C@H]1CCNC(=O)[C@H]([C@@H](C)O)NC(=O)[C@H](CCN)NC(=O)[C@H](CCN)NC(=O)[C@H](CC(C)C)NC(=O)[C@@H](CC(C)C)NC(=O)[C@H](CCN)NC1=O)[C@@H](C)O [colistin]; experiment: as above
Procedure: (§2)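 Clinical P. aeruginosa isolates were grown as static biofilms for 24 h at 37 °C in LB in half-area 96-well plates, then exposed for 24 h to colistin at 1, 4, 16, 64, 256 or […]. Surviving CFU were counted by spotting serial dilutions. MCK is the lowest tested concentration giving the stated log reduction in CFU versus an untreated control; '>1024' means the reduction was not reached at the top dose, and 1 is the lowest dose tested (≤1).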

[3] = compound: T1, tobramycin; experiment: minimum concentration of killing, 2-log CFU reduction of biofilm (MCK99); higher = more biofilm tolerance
Procedure: as §1

[4] = compound: T2, colistin; experiment: minimum concentration of killing, 1-log CFU reduction of biofilm (MCK90); higher = more biofilm tolerance
Procedure: as §2

[5] = compound: T1, tobramycin; experiment: as above
Procedure: as §1

[6] = compound: T2, colistin; experiment: minimum concentration of killing, 2-log CFU reduction of biofilm (MCK99); higher = more biofilm tolerance
Procedure: as §2

[7] = compound: T2, colistin; experiment: minimum concentration of killing, 4-log CFU reduction of biofilm (MCK99.99); higher = more biofilm tolerance
Procedure: as §2

[8] = compound: T1, tobramycin; experiment: as above
Procedure: as §1

Row | Test System | minimum concentration eradicating biofilm below detection limit [1] [µg/mL] | minimum concentration eradicating biofilm below detection limit [2] [µg/mL] | minimum concentration of killing [3] [µg/mL] | minimum concentration of killing [4] [µg/mL] | minimum concentration of killing [5] [µg/mL] | minimum concentration of killing [6] [µg/mL] | minimum concentration of killing [7] [µg/mL] | minimum concentration of killing [8] [µg/mL]
1 | Pseudomonas aeruginosa clinical isolate F2236 | 256 | 256 | 4 | 64 | ≤ 1 | 256 | 256 | 256
2 | Pseudomonas aeruginosa clinical isolate MHH15275 | > 1020 | 256 | > 1020 | 256 | 1020 | 256 | 256 | > 1020
3 | Pseudomonas aeruginosa clinical isolate CH2698 | > 1020 | 256 | 256 | 16 | 256 | 256 | 256 | 1020
4 | Pseudomonas aeruginosa clinical isolate MD6136 | 1020 | 256 | 256 | 256 | 256 | 256 | 256 | 256
5 | Pseudomonas aeruginosa clinical isolate MD3496 | 256 | 256 | 256 | 64 | 16 | 256 | 256 | 256
6 | Pseudomonas aeruginosa clinical isolate MHH0147 | > 1020 | 64 | 256 | 16 | 4 | 16 | 16 | > 1020
7 | Pseudomonas aeruginosa clinical isolate F2224 | > 1020 | 256 | 256 | 64 | 64 | 64 | 256 | 1020
8 | Pseudomonas aeruginosa clinical isolate MHH16610 | 1020 | 256 | 4 | 64 | ≤ 1 | 256 | 256 | 256
9 | Pseudomonas aeruginosa clinical isolate PSAE1651 | 1020 | 1020 | ≤ 1 | 64 | ≤ 1 | 256 | 1020 | 256
10 | Pseudomonas aeruginosa clinical isolate F2119 | > 1020 | 1020 | 256 | 16 | 64 | 64 | 1020 | > 1020
11 | Pseudomonas aeruginosa clinical isolate MHH17704 | 64 | 256 | 16 | 256 | 4 | 256 | 256 | 64
12 | Pseudomonas aeruginosa clinical isolate CH5066 | 1020 | 256 | 16 | 256 | ≤ 1 | 256 | 256 | 1020
13 | Pseudomonas aeruginosa clinical isolate F2165 | 64 | 256 | 4 | 256 | ≤ 1 | 256 | 256 | 4
14 | Pseudomonas aeruginosa clinical isolate CH4438 | 1020 | 256 | 16 | 256 | 16 | 256 | 256 | 1020
15 | Pseudomonas aeruginosa clinical isolate CH5182 | 256 | 256 | 4 | 256 | 4 | 256 | 256 | 256
16 | Pseudomonas aeruginosa clinical isolate MHH17783 | 256 | 64 | 16 | 64 | 4 | 64 | 64 | 256
17 | Pseudomonas aeruginosa clinical isolate ZG316704 | 256 | 256 | 16 | 256 | 4 | 256 | 256 | 256
18 | Pseudomonas aeruginosa clinical isolate CH4703 | > 1020 | 64 | > 1020 | 16 | 1020 | 16 | 64 | > 1020
19 | Pseudomonas aeruginosa clinical isolate MHH16513 | 256 | 256 | 4 | 16 | 4 | 256 | 256 | 4
20 | Pseudomonas aeruginosa clinical isolate M70608424 | 256 | 1020 | 16 | 64 | 4 | 256 | 1020 | 64
21 | Pseudomonas aeruginosa clinical isolate PSAE1903 | 256 | 256 | 256 | 64 | 16 | 256 | 256 | 256
22 | Pseudomonas aeruginosa clinical isolate M70663247 | 256 | 256 | 4 | 256 | 4 | 256 | 256 | 64
23 | Pseudomonas aeruginosa clinical isolate M70646077 | > 1020 | 1020 | ≤ 1 | 16 | ≤ 1 | 16 | 1020 | > 1020

Source: the supplement of paper PMC8920030
